According to PMC3320590:
Results are given in words; binding and its absence hold for the method and conditions named. In cells and extracts the contact can be indirect. Some binding calls cover weakened binding; strength is not graded here.

Amino acid sequences for entries named in this document (tags omitted). Residues count along the entry.
UniProt Q8WPU1, residues 18-376: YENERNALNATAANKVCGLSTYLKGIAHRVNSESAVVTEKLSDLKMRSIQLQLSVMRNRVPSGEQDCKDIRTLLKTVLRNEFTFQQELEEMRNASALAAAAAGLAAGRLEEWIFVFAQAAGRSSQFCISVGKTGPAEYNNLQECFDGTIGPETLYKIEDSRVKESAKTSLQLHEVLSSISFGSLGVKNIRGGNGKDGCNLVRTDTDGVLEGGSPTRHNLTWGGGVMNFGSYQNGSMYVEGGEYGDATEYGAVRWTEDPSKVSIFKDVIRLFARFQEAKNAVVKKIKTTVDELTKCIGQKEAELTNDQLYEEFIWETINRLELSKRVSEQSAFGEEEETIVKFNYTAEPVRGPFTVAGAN
UniProt Q8WPU2, residues 18-338: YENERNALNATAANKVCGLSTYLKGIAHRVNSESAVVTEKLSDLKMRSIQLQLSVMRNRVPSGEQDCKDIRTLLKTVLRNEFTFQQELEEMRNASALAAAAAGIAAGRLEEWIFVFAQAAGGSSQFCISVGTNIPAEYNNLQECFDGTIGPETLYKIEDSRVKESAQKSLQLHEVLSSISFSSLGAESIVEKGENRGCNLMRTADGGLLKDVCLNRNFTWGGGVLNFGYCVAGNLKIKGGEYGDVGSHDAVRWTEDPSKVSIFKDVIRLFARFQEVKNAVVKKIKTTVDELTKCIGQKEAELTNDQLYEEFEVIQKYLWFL

Target: ESAG6 subunit of the T. brucei transferrin receptor (T. brucei (endogenous in bloodstream form trypanosomes)) (UniProt Q8WPU1)
Assay: pull-down

ESAG7 subunit of the T. brucei transferrin receptor (from UniProt Q8WPU2 18-338)
binding: binds
